# Library screen at single concentrations

Amino acid sequences for entries named in this document (tags omitted).
UniProt P9WFT3, whole entry: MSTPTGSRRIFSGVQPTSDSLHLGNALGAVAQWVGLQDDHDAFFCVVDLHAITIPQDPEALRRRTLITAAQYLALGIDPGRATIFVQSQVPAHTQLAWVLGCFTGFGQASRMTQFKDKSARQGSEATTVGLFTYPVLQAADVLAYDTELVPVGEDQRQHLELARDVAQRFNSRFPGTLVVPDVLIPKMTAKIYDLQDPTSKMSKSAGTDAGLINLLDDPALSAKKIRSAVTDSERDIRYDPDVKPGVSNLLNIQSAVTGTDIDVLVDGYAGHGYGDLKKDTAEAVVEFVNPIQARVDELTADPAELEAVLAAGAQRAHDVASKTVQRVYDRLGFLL

Data taken from ChEMBL document CHEMBL3988442, “University of Dundee, Small-Polar-MMV Screening Library” (2021).

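Tryptophan-tRNA ligase, Mycobacterium tuberculosis (UniProt P9WFT3). Enzyme assay of tryptophanyl-tRNA synthetase; the read-out is not stated. Concentration: 10 µM. Direction is not recorded; retested compounds ran higher, which suggests that high means inhibition. Of about 65,000 compounds tested this way, about 64 (0.098%) reached 50% or more in at least one test.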

The filed quantity is “Percent Effect” (%). The controls that fix the scale are not given in the record; negative values are as filed. The compounds are a random part of those screened.

compound,percent effect
N#CC1(NC(=O)Cn2nnc(-c3cc4ccccc4o3)n2)CCCC1,-4.701%
O=c1c2c(ncn1CCO)nc1n2CCC1,-2.081%
Cn1c(NCC(=O)N2CCCCC2)c(C#N)c(=O)n(C)c1=O,-2.006%
CC(C)c1cc(NC(=O)Cn2ccc(=O)c3ccccc32)[nH]n1,6.345%
COc1ccccc1C1(C(=O)N2CCCC(c3cc(C)[nH]n3)C2)CC1 (centres unmarked),-3.814%
CCN(Cc1c(C)nn(CC)c1C)S(=O)(=O)c1cnn(C)c1,3.565%
COc1ccccc1CNC(Cn1cncn1)c1ccccc1 (centres unmarked),-2.528%
Cn1nnc2c1CCN(CC1CC1)C2COCC1CC1 (centres unmarked),-6.141%
Cc1n[nH]c2c1C(c1ccc(O)c(Cl)c1)SCC(=O)N2 (centres unmarked),-1.608%
Cc1cc(N2CCC(CO)(CC3CCCCO3)CC2)c2ccccc2n1 (centres unmarked),0.8683%
O[C@@H]1C[C@@](CNCc2ccc(Cl)cc2)(COc2cccnc2)C[C@@H]1O,0.5311%
CC(C)NC(=O)NC[C@H]1C[C@@H]2CCN1C[C@@H]2CN(C)c1ccccc1,-1.442%
Cc1ccc(C)c(CSc2nnc(C(N)Cc3ccccc3)o2)c1 (centres unmarked),-0.4823%
CC(C)NC(=O)CC1(Cn2cnnn2)CCCCC1,7.43%
Cc1ccc(C(=O)NS(=O)(=O)c2ccccc2C)c(=O)[nH]1,-2.818%
CC(NC(=O)Nc1cccnc1N1CCCC1)c1ccn(C)c1 (centres unmarked),14.83%
O=C1NCC2(CCCN(C(=O)c3ccc4c(c3)OCCO4)CC2)O1 (centres unmarked),-5.307%
CC(C)Cc1nc(CS(=O)(=O)C(C)C(=O)N2CCOCC2)no1 (centres unmarked),-2.468%
c1cnnc(N2CCCC2CNCc2nc3ccccc3o2)c1 (centres unmarked),2.22%
COc1cc(-c2cc(C3CCOC3)c(C#N)c(N)n2)ccc1O (centres unmarked),-5.346%
Cc1nn(C)cc1NC(=O)CN1CCN(C2CCCC2)C(=O)C1,5.026%
Cc1nc(O)cc(CCNC(=O)CC[C@@H]2CCCN3CCCC[C@H]23)n1,-0.1006%
C[C@H]1CN(Cc2cnn(C)c2)C[C@@]12CCN(Cc1cccnc1)C2=O,-1.298%
c1cc(-c2cnccn2)cc(-c2ccn(CCN3CCCCC3)n2)c1,-3.958%
O=C(c1cccc(F)c1)N(CCCO)S(=O)(=O)c1cccs1,-4.87%
CC(c1ccco1)n1cc(-c2cc(CN3CCCC3)cs2)nn1 (centres unmarked),-2.034%
CCn1ncnc1C(NC(=O)CC1CCN(C(C)C)CC1)C1CC1 (centres unmarked),-0.5029%
Cc1cccc(C(=O)N2CCC[C@]3(C[C@@H](OCC4CC4)CO3)C2)n1,3.753%
CCCn1cnnc1CNC(=O)CC1C(=O)NCCN1C(C)C (centres unmarked),7.046%
COc1ccccc1CC(=O)NS(C)(=O)=O,-1.679%
COc1ncccc1C(=O)N1CCc2c(ncnc2N2CCOCC2)C1,-1.385%
COc1ccccc1OCCNC1CCCN(Cc2noc(C)n2)C1 (centres unmarked),14.9%
CCN(CC1CN(CC2CCC2)CCO1)c1cccnn1 (centres unmarked),2.824%
Cc1cnc(CN(C)C2CCN(CCCc3ccccc3)C2)o1 (centres unmarked),7.926%
Cc1cnn(CCNCc2nnc(-c3ccc(F)cc3)o2)c1,-0.5111%
Cc1cncc(C(=O)N2CCOc3nc(C)ccc32)c1,-2.692%
CNC(=O)c1cccnc1N1CCN(Cc2ccccc2)C(CCO)C1 (centres unmarked),2.055%
COc1cccc(-c2n[nH]cc2C(=O)NC(C)c2nc(C(C)C)no2)c1 (centres unmarked),2.808%
Cc1nc(CN(C)C2CCCN(c3cccnn3)C2)oc1C (centres unmarked),-1.038%
CN(C)c1ncccc1CNC(=O)N1CCCC1c1ccsc1 (centres unmarked),-2.638%
O[C@@H]1C[C@@H](c2nc(-c3ccccc3)no2)N(Cc2ccncc2)C1,2.881%
CC(Nc1ncnc2c1CCNC2)c1ccc(C(C)(C)C)cc1 (centres unmarked),-2.91%
Cc1cc(C(=O)Nc2ccc3c(c2)N(C)CCN(C)C3)on1,-3.226%
Cc1nc(CN)cc(N2CCC(O)(c3ccc(Cl)cc3)CC2)n1,-5.146%
COC(=O)CNC(=O)c1ccn(-c2ccc(Cl)c(Cl)c2)n1,-0.9524%
COc1ccc(CCN(C)C2CCCN(Cc3noc(C)n3)C2)cc1 (centres unmarked),5.962%
COc1ccc(CCN2C(=O)O[C@@H]3CN(C)C[C@@H]32)cc1,-4.505%
N#Cc1ncn(CCC(=O)Nc2c(Cl)cccc2Cl)n1,1.234%
COCCN1CCN(C(C)C(=O)Nc2ccnn2C(C)C)CC1 (centres unmarked),-1.876%
COc1ccc(SCC2CNc3nc4ccccc4c(=O)n32)cc1 (centres unmarked),2.859%
Cc1ccc(CN(CCCn2ccnc2)Cc2cc(F)ccc2F)s1,6.667%
CCn1ccnc1-c1nc2cc(S(=O)(=O)N3CCCC3)ccc2n1C,2.637%
CCNC(=O)N1CCC(NC(=O)NCCCc2cccc(F)c2)C1 (centres unmarked),1.84%
Cc1cccc(CN2CC[C@H]3C[C@H](C)O[C@@H]3C2)n1,-4.049%
O=S(=O)(c1cccnc1)N1CCN(CCn2ccnc2)CC1,-0.2138%
O[C@H]1[C@H](NCCc2cnccn2)c2ccccc2C12CCNCC2,0.8642%
Cc1nccn1CCC1CCN(C(C)C)CC1,-2.196%
O=c1c(NCCNCCO)c(N2CCN(c3ccc(F)cc3)CC2)c1=O,1.977%
NC(=O)NC(=O)CCSCc1cc(F)cc2cccnc12,0.6798%
CN(Cc1ccsc1)C(=O)c1cccc(S(=O)(=O)NC(C)(C)C)c1,-1.039%

Repeated from the top, 7 entries:

| compound | percent effect |
|---|---|
| `N#CC1(NC(=O)Cn2nnc(-c3cc4ccccc4o3)n2)CCCC1` | -4.701% |
| `O=c1c2c(ncn1CCO)nc1n2CCC1` | -2.081% |
| `Cn1c(NCC(=O)N2CCCCC2)c(C#N)c(=O)n(C)c1=O` | -2.006% |
| `CC(C)c1cc(NC(=O)Cn2ccc(=O)c3ccccc32)[nH]n1` | 6.345% |
| `COc1ccccc1C1(C(=O)N2CCCC(c3cc(C)[nH]n3)C2)CC1` (centres unmarked) | -3.814% |
| `CCN(Cc1c(C)nn(CC)c1C)S(=O)(=O)c1cnn(C)c1` | 3.565% |
| `COc1ccccc1CNC(Cn1cncn1)c1ccccc1` (centres unmarked) | -2.528% |